{"source": "PubChem BioAssay AID1224830 | NIAID, 2016", "assay": "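Host factors that control LPS-induced TNF expression in human macrophages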 (primary screen)", "system": "human THP-1 monocytic leukaemia cells, TNF dual-luciferase reporter clone, PMA-differentiated to macrophage-like cells", "reagent": "siRNA pool against human genes, 50 nM", "time to read-out": "LPS for 4 h, given about 3 days after siRNA transfection", "conditions": "bacterial LPS (TLR4 ligand), 10 ng/ml", "measured": "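TNF firefly reporter luminescence divided by renilla, normalised to the plate median, then turned into a robust z-score for each replicate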", "direction": "TNF reporter robust z-score: higher = stronger TNF reporter response to LPS", "active means": "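Each well counts as active if its z-score is over 2.8 or under -1.5; controls are left without a call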", "note": "The whole screen tested about 18,000 reagents; below is an unselected part. About 2,900 of them (16%) were called active. 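Calls are made per well; low scores hint the gene aids the LPS response, high scores that it dampens it.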 Repeated entries: four replicate wells of each siRNA pool."}
{"gene": "PRDM8", "TNF reporter robust z-score": 2.4, "activity call": "inactive"}
{"gene": "PRDM8", "TNF reporter robust z-score": 2.34, "activity call": "inactive"}
{"gene": "PRDM8", "TNF reporter robust z-score": 1.15, "activity call": "inactive"}
{"gene": "PRDM8", "TNF reporter robust z-score": 1.73, "activity call": "inactive"}
{"gene": "DNAJB3P", "TNF reporter robust z-score": 1.42, "activity call": "inactive"}
{"gene": "DNAJB3P", "TNF reporter robust z-score": 0.36, "activity call": "inactive"}
{"gene": "DNAJB3P", "TNF reporter robust z-score": 1.52, "activity call": "inactive"}
{"gene": "DNAJB3P", "TNF reporter robust z-score": 0.57, "activity call": "inactive"}
{"gene": "KLKB1", "TNF reporter robust z-score": -0.24, "activity call": "inactive"}
{"gene": "KLKB1", "TNF reporter robust z-score": 0.36, "activity call": "inactive"}
{"gene": "KLKB1", "TNF reporter robust z-score": 1.05, "activity call": "inactive"}
{"gene": "KLKB1", "TNF reporter robust z-score": 0.21, "activity call": "inactive"}
{"gene": "TRAPPC3", "TNF reporter robust z-score": -1.51, "activity call": "active"}
{"gene": "TRAPPC3", "TNF reporter robust z-score": -1.35, "activity call": "inactive"}
{"gene": "TRAPPC3", "TNF reporter robust z-score": -1.44, "activity call": "inactive"}
{"gene": "TRAPPC3", "TNF reporter robust z-score": -1.49, "activity call": "inactive"}
{"gene": "LSM14A", "TNF reporter robust z-score": 1.11, "activity call": "inactive"}
{"gene": "LSM14A", "TNF reporter robust z-score": 1, "activity call": "inactive"}
{"gene": "LSM14A", "TNF reporter robust z-score": -0.47, "activity call": "inactive"}
{"gene": "LSM14A", "TNF reporter robust z-score": 0.76, "activity call": "inactive"}

Reagents listed above with an active call, once more:
{"gene": "TRAPPC3", "TNF reporter robust z-score": -1.51, "activity call": "active"}
